Results are given in words; binding and its absence hold for the method and conditions named. Binding seen in cells or lysates may run through a third protein. Binding calls can cover weak binding; strength is not graded here.
Columns and labels:
Assay in all cases: co-IP
[1] = target: T1, zebrafish Lhx1a (zebrafish) (UniProt Q90476)
T1 sequence: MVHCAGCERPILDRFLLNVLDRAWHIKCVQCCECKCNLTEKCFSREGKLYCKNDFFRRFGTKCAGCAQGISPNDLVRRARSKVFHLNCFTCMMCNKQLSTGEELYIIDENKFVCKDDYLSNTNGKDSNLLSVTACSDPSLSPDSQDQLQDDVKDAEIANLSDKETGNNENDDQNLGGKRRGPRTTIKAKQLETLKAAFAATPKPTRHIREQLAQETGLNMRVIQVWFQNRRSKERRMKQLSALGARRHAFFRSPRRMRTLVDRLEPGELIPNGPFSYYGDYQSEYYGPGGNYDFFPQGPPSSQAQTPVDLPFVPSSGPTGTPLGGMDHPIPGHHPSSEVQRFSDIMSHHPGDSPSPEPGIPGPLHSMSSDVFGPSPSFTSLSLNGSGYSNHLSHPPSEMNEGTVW

[2] = target: T2, zebrafish Lhx5 (zebrafish) (UniProt P52889)
T2 sequence: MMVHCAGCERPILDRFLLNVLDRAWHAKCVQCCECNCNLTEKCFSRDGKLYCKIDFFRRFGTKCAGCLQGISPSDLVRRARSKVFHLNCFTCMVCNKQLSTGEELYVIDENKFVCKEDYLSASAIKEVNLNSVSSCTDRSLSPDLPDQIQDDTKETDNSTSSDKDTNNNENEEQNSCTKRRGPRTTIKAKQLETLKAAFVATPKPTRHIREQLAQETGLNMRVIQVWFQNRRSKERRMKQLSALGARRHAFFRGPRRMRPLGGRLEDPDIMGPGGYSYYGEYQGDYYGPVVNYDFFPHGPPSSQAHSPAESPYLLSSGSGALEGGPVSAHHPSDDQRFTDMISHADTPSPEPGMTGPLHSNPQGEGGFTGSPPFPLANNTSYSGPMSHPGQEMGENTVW

[3] = target: T3, zebrafish Lhx1b (zebrafish) (UniProt O13106)
T3 sequence: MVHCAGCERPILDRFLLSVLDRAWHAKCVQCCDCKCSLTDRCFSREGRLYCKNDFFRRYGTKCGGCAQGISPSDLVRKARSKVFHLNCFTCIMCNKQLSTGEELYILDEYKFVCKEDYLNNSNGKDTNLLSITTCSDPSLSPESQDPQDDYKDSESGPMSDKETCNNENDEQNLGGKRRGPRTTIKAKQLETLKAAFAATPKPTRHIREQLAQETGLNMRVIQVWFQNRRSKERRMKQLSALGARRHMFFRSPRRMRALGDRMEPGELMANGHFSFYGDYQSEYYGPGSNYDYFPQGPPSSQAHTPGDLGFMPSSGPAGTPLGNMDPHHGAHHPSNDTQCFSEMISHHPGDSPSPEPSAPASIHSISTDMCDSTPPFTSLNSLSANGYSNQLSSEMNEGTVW

Measured: binding

zebrafish Skor2
binds: [1] | [2] | [3]
